PMC11576475
No constants are given. Whether binding was seen depends on the method and setting. Binding seen in cells or lysates may run through a third protein. A yes stands for co-enrichment or nearness to the bait. Other partners may have been found. For part of these data: Tags and fused reporters may be left off the sequences shown. Each block holds one molecule with its values, some of them ahead of it.

Amino acid sequences for entries named in this document (tags omitted). A change or cut given only in a name is not applied to a line headed by its entry.
UniProt O95817: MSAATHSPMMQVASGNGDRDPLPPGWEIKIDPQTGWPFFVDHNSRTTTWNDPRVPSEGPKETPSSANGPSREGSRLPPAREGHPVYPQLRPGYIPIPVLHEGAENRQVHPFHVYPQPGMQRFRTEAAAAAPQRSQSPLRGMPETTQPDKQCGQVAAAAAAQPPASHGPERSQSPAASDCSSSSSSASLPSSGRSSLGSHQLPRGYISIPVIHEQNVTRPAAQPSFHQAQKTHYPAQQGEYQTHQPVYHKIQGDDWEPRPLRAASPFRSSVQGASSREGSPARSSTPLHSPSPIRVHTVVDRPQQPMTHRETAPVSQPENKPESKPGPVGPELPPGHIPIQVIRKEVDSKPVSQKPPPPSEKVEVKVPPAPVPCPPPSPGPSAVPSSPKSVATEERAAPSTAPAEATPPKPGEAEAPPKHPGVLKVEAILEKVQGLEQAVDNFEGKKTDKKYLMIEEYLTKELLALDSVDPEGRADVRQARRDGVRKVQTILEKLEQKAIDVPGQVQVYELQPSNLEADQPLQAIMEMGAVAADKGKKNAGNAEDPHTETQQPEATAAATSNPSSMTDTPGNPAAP
UniProt O95433: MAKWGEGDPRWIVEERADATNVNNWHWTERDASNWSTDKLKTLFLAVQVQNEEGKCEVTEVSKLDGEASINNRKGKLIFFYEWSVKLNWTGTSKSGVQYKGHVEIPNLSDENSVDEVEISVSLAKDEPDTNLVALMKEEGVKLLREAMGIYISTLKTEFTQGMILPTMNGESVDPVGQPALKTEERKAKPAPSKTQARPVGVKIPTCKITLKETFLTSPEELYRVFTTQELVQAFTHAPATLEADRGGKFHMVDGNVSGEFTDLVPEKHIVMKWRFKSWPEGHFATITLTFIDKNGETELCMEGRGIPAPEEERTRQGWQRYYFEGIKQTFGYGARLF

Experiments:
[1] = molecular target: T1, N-terminally triple-FLAG-tagged human PP5 (protein phosphatase-5) (human) (UniProt P53041); test: affinity purification with mass spectrometry; triple-FLAG-tagged bait (BAG3 or PP5) overexpressed in HEK293 for 24 h; lysate (100 mM NaCl, 10 mM Tris, 0.1% IGEPAL, 1 mM EDTA, 1 mM EGTA, 20 nM Calyculin A, 1 mM DTT, 1 mM MnCl2) with anti-FLAG M2 magnetic beads 2 h at 4°C; in-gel digestion, LC-MS; triple-FLAG tag as control; enriched: more than fivefold, P ≤ 0.05 (rank sum), n = 4
T1 sequence: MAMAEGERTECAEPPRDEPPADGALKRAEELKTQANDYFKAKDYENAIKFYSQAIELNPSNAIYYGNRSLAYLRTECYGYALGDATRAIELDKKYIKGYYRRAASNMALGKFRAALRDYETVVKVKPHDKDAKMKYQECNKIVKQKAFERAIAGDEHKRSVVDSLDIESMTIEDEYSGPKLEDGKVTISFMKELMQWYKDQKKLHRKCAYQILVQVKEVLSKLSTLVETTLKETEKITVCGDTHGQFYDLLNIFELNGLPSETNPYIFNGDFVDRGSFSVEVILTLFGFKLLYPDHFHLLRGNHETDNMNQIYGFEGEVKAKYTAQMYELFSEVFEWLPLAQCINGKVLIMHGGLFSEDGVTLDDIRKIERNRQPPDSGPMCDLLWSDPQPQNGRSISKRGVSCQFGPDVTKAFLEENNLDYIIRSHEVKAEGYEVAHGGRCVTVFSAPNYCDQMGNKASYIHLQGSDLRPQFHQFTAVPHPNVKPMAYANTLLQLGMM

[2] = molecular target: FLAG-BAG3-S284D/T285D/S289D/S291D (human) (UniProt O95817); test: affinity purification with mass spectrometry; FLAG-BAG3 wt, 4A or 4D overexpressed in HEK293, precipitated with anti-FLAG beads, on-bead tryptic digestion, LC-MS; PP5/BAG3 intensity ratios, n = 3
[3] = molecular target: FLAG-BAG3-S284A/T285A/S289A/S291A (human) (UniProt O95817); test: as above

Molecule: BAG3, endogenous (from UniProt O95817 1-575)
binding [1]: binds

Molecule: AHSA1 (from UniProt O95433 1-338)
binding [1]: binds

Now from value to molecule:

binding [1]: binds
B1: CHORDC1 (protein, UniProt Q9UHD1 1-332)
chain: MALLCYNRGCGQRFDPETNSDDACTYHPGVPVFHDALKGWSCCKRRTTDFSDFLSIVGCTKGRHNSEKPPEPVKPEVKTTEKKELCELKPKFQEHIIQAPKPVEAIKRPSPDEPMTNLELKISASLKQALDKLKLSSGNEENKKEEDNDEIKIGTSCKNGGCSKTYQGLESLEEVCVYHSGVPIFHEGMKYWSCCRRKTSDFNTFLAQEGCTKGKHMWTKKDAGKKVVPCRHDWHQTGGEVTISVYAKNSLPELSRVEANSTLLNVHIVFEGEKEFDQNVKLWGVIDVKRSYVTMTATKIEITMRKAEPMQWASLELPAAKKQEKQKDATTD

binding [2]: binds | binding [3]: binds
B2: protein phosphatase-5 (PP5), endogenous (enzyme, UniProt P53041 1-499)
chain: T1 sequence

binding [1]: binds
B3: Hsp90 co-chaperone Cdc37 (protein, UniProt Q16543 1-378)
chain: MVDYSVWDHIEVSDDEDETHPNIDTASLFRWRHQARVERMEQFQKEKEELDRGCRECKRKVAECQRKLKELEVAEGGKAELERLQAEAQQLRKEERSWEQKLEEMRKKEKSMPWNVDTLSKDGFSKSMVNTKPEKTEEDSEEVREQKHKTFVEKYEKQIKHFGMLRRWDDSQKYLSDNVHLVCEETANYLVIWCIDLEVEEKCALMEQVAHQTIVMQFILELAKSLKVDPRACFRQFFTKIKTADRQYMEGFNDELEAFKERVRGRAKLRIEKAMKEYEEEERKKRLGPGGLDPVEVYESLPEELQKCFDVKDVQMLQDAISKMDPTDAKYHMQRCIDSGLWVPNSKASEAKEGEEAGPGDPLLEAVPKTGDEKDVSV
